In the supplement of paper PMC10849652:
This is one part of the list.

Sequences of proteins named here, by UniProt entry; tags and fusion partners are left off. A change or cut given only in a name is not applied to a line headed by its entry.
UniProt P11908: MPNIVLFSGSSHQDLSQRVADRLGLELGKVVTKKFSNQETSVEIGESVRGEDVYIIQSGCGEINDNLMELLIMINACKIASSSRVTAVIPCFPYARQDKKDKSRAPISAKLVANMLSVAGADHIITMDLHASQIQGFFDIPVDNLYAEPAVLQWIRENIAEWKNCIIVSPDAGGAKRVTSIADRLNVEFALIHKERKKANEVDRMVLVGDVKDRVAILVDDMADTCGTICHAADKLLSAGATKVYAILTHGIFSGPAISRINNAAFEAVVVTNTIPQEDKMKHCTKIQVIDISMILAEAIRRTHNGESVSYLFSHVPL
UniProt Q5JS54: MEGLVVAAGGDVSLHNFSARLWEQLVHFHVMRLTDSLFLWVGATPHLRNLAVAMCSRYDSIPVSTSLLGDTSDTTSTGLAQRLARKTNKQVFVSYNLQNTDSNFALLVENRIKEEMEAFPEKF
UniProt Q9P2B2: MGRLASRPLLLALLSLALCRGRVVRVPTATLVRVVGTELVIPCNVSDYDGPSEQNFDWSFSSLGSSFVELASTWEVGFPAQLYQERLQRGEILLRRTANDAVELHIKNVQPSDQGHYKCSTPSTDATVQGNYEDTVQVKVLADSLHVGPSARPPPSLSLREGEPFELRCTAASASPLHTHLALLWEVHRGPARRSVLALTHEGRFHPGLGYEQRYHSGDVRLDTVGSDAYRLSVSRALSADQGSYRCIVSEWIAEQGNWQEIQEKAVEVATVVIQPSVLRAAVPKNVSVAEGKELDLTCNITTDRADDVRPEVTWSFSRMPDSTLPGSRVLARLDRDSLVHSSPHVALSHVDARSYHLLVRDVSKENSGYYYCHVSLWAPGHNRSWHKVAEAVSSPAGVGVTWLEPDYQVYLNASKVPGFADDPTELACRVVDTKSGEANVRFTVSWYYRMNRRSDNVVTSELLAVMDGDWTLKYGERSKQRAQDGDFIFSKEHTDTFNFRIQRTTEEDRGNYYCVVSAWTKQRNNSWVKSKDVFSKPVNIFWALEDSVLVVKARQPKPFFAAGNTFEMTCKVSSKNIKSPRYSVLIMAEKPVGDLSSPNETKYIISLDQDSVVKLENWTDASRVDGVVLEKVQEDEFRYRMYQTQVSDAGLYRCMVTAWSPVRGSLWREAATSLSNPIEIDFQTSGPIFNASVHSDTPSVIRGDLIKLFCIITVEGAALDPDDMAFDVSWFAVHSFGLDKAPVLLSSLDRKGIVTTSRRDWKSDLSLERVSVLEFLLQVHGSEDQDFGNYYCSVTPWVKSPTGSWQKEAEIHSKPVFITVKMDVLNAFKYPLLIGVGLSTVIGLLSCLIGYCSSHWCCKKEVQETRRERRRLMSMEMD
UniProt Q15397: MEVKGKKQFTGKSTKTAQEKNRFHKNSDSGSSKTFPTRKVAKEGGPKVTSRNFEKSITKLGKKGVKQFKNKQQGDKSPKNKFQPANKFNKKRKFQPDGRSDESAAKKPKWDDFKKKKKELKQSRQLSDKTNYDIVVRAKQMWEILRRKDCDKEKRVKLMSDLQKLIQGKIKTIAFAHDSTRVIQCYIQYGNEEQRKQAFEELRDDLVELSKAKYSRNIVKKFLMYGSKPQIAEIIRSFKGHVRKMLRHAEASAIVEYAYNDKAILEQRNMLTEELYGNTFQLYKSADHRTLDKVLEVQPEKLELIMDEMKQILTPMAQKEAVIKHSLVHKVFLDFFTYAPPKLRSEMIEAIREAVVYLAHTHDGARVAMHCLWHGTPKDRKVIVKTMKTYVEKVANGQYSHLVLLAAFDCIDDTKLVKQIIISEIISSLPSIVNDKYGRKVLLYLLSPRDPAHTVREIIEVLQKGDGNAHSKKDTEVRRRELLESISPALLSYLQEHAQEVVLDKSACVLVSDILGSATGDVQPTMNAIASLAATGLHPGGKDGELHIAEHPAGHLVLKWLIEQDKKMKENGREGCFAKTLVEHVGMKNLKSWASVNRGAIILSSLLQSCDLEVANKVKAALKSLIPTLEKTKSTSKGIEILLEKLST
UniProt Q8N8N7: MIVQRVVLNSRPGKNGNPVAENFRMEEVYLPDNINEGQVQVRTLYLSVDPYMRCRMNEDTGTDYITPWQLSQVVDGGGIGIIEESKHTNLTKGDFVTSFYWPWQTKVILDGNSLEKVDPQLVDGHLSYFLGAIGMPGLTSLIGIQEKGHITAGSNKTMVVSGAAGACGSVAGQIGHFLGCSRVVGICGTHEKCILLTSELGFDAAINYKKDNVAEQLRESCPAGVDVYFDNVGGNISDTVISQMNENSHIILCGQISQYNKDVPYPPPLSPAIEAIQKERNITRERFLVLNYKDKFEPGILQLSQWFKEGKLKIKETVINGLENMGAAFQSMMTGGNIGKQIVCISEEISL
UniProt Q9Y3E5: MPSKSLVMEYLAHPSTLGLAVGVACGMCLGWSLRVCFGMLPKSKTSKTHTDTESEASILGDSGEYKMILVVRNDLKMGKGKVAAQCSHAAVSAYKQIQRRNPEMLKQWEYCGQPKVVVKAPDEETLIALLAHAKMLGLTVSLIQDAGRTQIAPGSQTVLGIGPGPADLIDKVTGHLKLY
UniProt O00231, whole entry, looked up: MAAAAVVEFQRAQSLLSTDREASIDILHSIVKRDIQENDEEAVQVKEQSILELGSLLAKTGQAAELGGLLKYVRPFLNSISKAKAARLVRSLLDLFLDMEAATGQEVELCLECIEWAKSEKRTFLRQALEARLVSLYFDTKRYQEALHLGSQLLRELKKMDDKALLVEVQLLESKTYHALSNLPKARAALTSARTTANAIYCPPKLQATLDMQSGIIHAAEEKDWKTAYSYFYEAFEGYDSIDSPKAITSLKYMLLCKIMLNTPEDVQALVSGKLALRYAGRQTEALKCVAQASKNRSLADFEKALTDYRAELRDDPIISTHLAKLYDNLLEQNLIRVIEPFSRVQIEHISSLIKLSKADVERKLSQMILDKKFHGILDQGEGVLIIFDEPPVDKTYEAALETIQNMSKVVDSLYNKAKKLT
UniProt Q6PGN9: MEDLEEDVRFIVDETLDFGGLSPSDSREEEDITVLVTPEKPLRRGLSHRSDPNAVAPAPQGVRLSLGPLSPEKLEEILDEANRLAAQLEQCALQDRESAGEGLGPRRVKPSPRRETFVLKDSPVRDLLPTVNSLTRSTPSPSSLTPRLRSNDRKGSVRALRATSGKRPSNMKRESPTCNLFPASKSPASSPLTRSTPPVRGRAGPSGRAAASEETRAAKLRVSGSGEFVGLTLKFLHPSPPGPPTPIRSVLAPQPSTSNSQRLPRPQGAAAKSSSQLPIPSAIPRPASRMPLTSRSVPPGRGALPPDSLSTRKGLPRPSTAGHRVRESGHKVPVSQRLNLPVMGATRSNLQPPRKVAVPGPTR
UniProt P51665: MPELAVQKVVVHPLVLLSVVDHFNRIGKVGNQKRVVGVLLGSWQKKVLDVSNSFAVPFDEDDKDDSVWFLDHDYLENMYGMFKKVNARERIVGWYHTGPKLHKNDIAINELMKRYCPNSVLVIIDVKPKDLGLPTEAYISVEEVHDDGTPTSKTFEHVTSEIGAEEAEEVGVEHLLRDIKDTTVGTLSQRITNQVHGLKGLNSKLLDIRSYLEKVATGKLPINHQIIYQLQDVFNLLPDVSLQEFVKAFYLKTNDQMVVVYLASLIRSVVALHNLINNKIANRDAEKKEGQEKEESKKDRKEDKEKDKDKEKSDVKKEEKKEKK
UniProt P28062: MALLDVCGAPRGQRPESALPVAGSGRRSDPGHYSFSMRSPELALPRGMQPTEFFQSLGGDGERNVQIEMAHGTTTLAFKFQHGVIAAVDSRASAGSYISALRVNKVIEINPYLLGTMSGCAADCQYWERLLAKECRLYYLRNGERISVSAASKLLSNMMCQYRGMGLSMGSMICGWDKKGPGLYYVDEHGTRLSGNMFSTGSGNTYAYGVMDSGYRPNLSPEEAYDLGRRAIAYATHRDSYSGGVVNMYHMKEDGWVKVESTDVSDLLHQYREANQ
UniProt P28074: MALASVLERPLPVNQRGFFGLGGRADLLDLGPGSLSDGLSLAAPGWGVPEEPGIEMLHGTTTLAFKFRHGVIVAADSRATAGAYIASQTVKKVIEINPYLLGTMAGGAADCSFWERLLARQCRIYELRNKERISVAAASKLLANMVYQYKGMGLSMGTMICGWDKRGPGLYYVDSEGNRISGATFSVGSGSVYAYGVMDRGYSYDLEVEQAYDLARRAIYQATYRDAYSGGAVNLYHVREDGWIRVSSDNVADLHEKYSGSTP
UniProt Q14997: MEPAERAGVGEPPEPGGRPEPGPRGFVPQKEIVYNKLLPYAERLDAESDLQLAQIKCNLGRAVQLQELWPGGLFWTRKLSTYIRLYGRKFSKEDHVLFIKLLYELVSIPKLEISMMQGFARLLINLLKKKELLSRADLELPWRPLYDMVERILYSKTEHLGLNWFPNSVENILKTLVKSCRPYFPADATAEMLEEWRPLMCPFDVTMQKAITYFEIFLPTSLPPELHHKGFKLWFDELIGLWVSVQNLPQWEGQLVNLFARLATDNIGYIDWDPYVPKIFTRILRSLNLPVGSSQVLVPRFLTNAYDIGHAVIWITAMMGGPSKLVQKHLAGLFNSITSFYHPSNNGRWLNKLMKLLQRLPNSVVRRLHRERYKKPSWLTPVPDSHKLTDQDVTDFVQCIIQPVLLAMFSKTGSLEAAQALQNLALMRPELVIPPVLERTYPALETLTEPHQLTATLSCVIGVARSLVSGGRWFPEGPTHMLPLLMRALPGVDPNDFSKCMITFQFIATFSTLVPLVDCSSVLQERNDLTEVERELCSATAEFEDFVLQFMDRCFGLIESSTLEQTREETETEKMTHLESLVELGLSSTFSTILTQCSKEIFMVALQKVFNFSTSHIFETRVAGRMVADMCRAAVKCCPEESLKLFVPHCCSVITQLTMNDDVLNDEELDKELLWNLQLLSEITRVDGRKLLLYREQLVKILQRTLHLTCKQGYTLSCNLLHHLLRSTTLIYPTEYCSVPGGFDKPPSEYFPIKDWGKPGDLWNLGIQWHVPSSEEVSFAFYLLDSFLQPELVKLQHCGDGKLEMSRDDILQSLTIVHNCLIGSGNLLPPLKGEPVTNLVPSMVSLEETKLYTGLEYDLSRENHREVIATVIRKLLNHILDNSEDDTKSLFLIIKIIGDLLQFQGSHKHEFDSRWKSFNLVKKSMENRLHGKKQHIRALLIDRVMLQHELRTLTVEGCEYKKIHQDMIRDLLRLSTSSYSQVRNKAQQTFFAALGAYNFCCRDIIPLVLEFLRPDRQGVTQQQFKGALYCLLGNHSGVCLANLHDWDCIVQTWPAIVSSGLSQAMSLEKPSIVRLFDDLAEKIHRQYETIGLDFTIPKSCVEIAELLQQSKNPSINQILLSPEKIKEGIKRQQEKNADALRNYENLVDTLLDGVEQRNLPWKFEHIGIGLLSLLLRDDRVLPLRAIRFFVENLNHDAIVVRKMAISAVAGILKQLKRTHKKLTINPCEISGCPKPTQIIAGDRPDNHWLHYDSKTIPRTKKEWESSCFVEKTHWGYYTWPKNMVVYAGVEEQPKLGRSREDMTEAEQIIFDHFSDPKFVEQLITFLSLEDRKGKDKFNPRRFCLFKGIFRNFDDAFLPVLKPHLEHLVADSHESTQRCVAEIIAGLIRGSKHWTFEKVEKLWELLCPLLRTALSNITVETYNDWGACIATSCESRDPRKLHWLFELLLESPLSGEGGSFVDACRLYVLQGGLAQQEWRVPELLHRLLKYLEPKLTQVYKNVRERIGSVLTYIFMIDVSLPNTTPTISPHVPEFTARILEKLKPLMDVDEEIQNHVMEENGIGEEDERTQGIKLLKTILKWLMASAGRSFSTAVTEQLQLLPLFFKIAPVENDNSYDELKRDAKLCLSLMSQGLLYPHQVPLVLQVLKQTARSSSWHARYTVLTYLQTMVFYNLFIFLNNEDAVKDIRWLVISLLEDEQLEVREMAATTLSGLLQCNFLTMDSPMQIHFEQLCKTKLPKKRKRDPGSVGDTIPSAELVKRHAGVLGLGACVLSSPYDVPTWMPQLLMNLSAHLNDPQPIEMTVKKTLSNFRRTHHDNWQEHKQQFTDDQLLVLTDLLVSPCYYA
UniProt O00233: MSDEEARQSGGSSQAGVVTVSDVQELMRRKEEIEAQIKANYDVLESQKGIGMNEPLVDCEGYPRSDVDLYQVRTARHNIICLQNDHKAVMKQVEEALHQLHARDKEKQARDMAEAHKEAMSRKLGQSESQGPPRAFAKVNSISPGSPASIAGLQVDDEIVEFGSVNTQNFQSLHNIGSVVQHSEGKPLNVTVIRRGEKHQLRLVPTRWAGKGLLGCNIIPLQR
UniProt Q8TBF2: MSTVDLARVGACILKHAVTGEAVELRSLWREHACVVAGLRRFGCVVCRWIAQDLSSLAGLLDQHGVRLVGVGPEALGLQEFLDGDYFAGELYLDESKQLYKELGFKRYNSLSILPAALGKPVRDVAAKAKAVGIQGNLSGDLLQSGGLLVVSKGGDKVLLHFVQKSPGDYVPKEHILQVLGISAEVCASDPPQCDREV

How the values were obtained:
Experiment in all cases: log2 fold change, soluble protein after heating vs DMSO (PISA); higher = thermal stabilisation; K562 lysate, 10 uM; active = over 0.2 and 3.5 SD of the protein, either way, in both replicates (recomputed)
[1] = compound: CS(=O)(=O)CCNCc1ccc(-c2ccc3ncnc(Nc4ccc(OCc5cccc(F)c5)c(Cl)c4)c3c2)o1 [lapatinib]
How it was run: (§1)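 Log-two fold change in thermal stability relative to solvent controls is reported from duplicates. For each sample, crude K562 extract from dounce-homogenised pellets in PBS pH 7.4 with 1 mM MgCl2, at 1 mg/mL protein, was treated with 10 μM compound for 30 min. Aliquots heated for 3 min across 48°C-58°C were pooled, brought to 0.5% NP-40 at 4°C and cleared at 21,000xg for 90 min. The supernatant was quantified by TMTpro 16plex LC-MS/MS with channel sums equalised.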

[2] = compound: CS(=O)(=O)N1CCN(Cc2cc3nc(-c4cccc5[nH]ncc45)nc(N4CCOCC4)c3s2)CC1 [pictilisib]
How it was run: as §1

[3] = compound: C[C@@H](Oc1cc(-c2cnn(C3CCNCC3)c2)cnc1N)c1c(Cl)ccc(F)c1Cl [crizotinib]
How it was run: as §1

[4] = compound: C[C@H](C1=CC=C(C=C1)C(=O)NC2=C3C=CNC3=NC=C2)N
How it was run: as §1

[5] = compound: C[C@H](Nc1ncnc2nc[nH]c12)c1cc2cccc(Cl)c2c(=O)n1-c1ccccc1 [duvelisib]
How it was run: as §1

[6] = compound: Cc1cc(Nc2cc(CN3CCOCC3)c3nc(C)c(Cc4ccc(Cl)cc4F)n3n2)n[nH]1 [gandotinib]
How it was run: as §1

[7] = compound: Cc1cc(Nc2cc(N3CCN(C)CC3)nc(Sc3ccc(NC(=O)C4CC4)cc3)n2)n[nH]1 [tozasertib]
How it was run: as §1

[8] = compound: Cc1ccc(-n2nc(C(C)(C)C)cc2NC(=O)Nc2ccc(OCCN3CCOCC3)c3ccccc23)cc1 [doramapimod]
How it was run: as §1

[9] = compound: Cc1ccc(NC(=O)c2ccc(CN3CC[C@H](N(C)C)C3)c(C(F)(F)F)c2)cc1Nc1nccc(-c2cncnc2)n1 [bafetinib]
How it was run: as §1

[10] = compound: Cc1cccc(CC(=O)N2CCc3c2ccc(-c2cn(C)c4ncnc(N)c24)c3F)n1
How it was run: as §1

Target | log2 fold change [1] | log2 fold change [2] | log2 fold change [3] | log2 fold change [4] | log2 fold change [5] | log2 fold change [6] | log2 fold change [7] | log2 fold change [8] | log2 fold change [9] | log2 fold change [10]
PTDSS1 (UniProt P48651) | inactive: -0.065 | inactive: 0.048 | inactive: -0.059 | inactive: -0.026 | inactive: -0.005 | inactive: -0.229 | inactive: 0.103 | inactive: -0.022 | inactive: -0.134 | inactive: 0.126
PRPS2 isoform 2 (UniProt P11908) | inactive: -0.024 | inactive: -0.038 | inactive: 0.005 | inactive: 0.025 | inactive: 0.016 | inactive: -0.016 | inactive: 0.001 | inactive: 0.021 | inactive: 0.003 | inactive: -0.037
PSMG4 isoform 2 (UniProt Q5JS54) | inactive: 0.157 | inactive: 0.113 | inactive: -0.069 | inactive: 0.096 | inactive: -0.02 | inactive: 0.098 | inactive: -0.012 | inactive: 0.085 | inactive: 0.038 | inactive: -0.02
PTPN9 (UniProt P43378) | inactive: 0.316 | inactive: -0.043 | inactive: 0.04 | inactive: -0.164 | inactive: 0.009 | inactive: 0.284 | inactive: -0.063 | inactive: 0.029 | inactive: -0.133 | inactive: 0.297
PSMD6 isoform 4 (UniProt Q15008) | inactive: -0.005 | inactive: 0.062 | inactive: -0.016 | inactive: 0.015 | inactive: 0.018 | inactive: -0.093 | inactive: -0.022 | inactive: -0.003 | inactive: 0.02 | inactive: 0.009
PRUNE1 (UniProt Q86TP1) | inactive: -0.009 | inactive: -0.004 | inactive: 0.01 | inactive: 0.01 | inactive: 0.065 | inactive: -0.034 | inactive: -0.007 | inactive: -0.001 | inactive: -0.011 | inactive: 0.028
PUS10 (UniProt Q3MIT2) | inactive: 0 | inactive: 0.04 | inactive: -0.036 | inactive: 0.081 | inactive: 0.013 | inactive: -0.059 | inactive: 0.034 | inactive: -0.022 | inactive: 0.017 | inactive: -0.033
PTGFRN (UniProt Q9P2B2) | inactive: -0.011 | inactive: -0.046 | inactive: 0.013 | inactive: 0.008 | inactive: 0.045 | inactive: 0.008 | inactive: -0.013 | inactive: -0.021 | inactive: -0.004 | inactive: -0.001
PUM3 (UniProt Q15397) | inactive: -0.049 | inactive: -0.03 | inactive: 0.003 | inactive: 0.03 | inactive: 0.076 | inactive: -0.126 | inactive: 0.013 | inactive: -0.012 | inactive: -0.107 | inactive: 0.05
PUDP isoform 4 (UniProt Q08623) | inactive: -0.019 | inactive: 0.008 | inactive: 0.009 | inactive: -0.009 | inactive: 0.016 | inactive: 0.045 | inactive: 0.034 | inactive: -0.015 | inactive: 0 | inactive: 0.084
PTGR2 (UniProt Q8N8N7) | inactive: -0.003 | inactive: 0.014 | inactive: -0.029 | inactive: -0.04 | inactive: 0.02 | inactive: 0.01 | inactive: 0.04 | inactive: -0.04 | inactive: -0.003 | inactive: -0.004
PTRH2 (UniProt Q9Y3E5) | inactive: 0.042 | inactive: -0.019 | inactive: -0.081 | inactive: 0.032 | inactive: 0.018 | inactive: -0.04 | inactive: -0.008 | inactive: 0.028 | inactive: 0.031 | inactive: -0.07
PSMD11 (UniProt O00231) | inactive: -0.013 | inactive: -0.009 | inactive: 0.026 | inactive: -0.012 | inactive: 0.003 | inactive: -0.054 | inactive: -0.032 | inactive: -0.04 | inactive: -0.012 | inactive: -0.027
PTPRA (UniProt P18433) | inactive: -0.029 | inactive: -0.041 | inactive: 0.003 | inactive: 0.014 | inactive: 0.046 | inactive: -0.029 | inactive: -0.035 | inactive: 0.079 | inactive: -0.054 | inactive: -0.011
PSMB10 (UniProt P40306) | inactive: -0.088 | inactive: -0.015 | inactive: -0.013 | inactive: 0.003 | inactive: 0.069 | inactive: 0.009 | inactive: 0.101 | inactive: -0.013 | inactive: 0.025 | inactive: -0.032
PTGS1 isoform 6 (UniProt P23219) | inactive: 0.004 | inactive: -0.068 | inactive: 0.007 | active: -0.236 | inactive: -0.001 | inactive: 0.109 | inactive: 0.029 | inactive: 0.036 | inactive: -0.079 | inactive: 0.093
PSRC1 (UniProt Q6PGN9) | inactive: 0.039 | inactive: 0.01 | inactive: -0.044 | inactive: -0.068 | inactive: -0.015 | inactive: 0.234 | inactive: 0.118 | inactive: 0.233 | inactive: -0.113 | inactive: 0.095
PSMD7 (UniProt P51665) | inactive: -0.009 | inactive: -0.006 | inactive: -0.052 | inactive: 0.001 | inactive: 0.011 | inactive: -0.039 | inactive: -0.005 | inactive: 0.012 | inactive: -0.046 | inactive: 0.001
PSMB8 (UniProt P28062) | inactive: 0.017 | inactive: -0.035 | inactive: -0.041 | inactive: -0.01 | inactive: 0.052 | inactive: -0.018 | inactive: -0.006 | inactive: 0.011 | inactive: 0.116 | inactive: -0.023
PSMB5 (UniProt P28074) | inactive: -0.025 | inactive: 0.016 | inactive: 0.029 | inactive: -0.008 | inactive: 0.004 | inactive: 0.018 | inactive: -0.001 | inactive: -0.028 | inactive: -0.002 | inactive: -0.023
PTCD3 (UniProt Q96EY7) | inactive: 0.011 | inactive: -0.002 | inactive: -0.092 | inactive: 0.036 | inactive: 0.023 | inactive: -0.087 | inactive: 0.005 | inactive: 0.029 | inactive: -0.008 | inactive: -0.068
PSMD1 (UniProt Q99460) | inactive: 0.013 | inactive: 0.015 | inactive: -0.026 | inactive: 0.02 | inactive: 0.02 | inactive: -0.057 | inactive: -0.021 | inactive: 0.028 | inactive: -0.012 | inactive: -0.011
PSME4 (UniProt Q14997) | inactive: -0.015 | inactive: -0.015 | inactive: -0.078 | inactive: -0.112 | inactive: 0.004 | inactive: 0.046 | inactive: 0.03 | inactive: 0.018 | inactive: -0.022 | inactive: 0.099
PSMA2 (UniProt P25787) | inactive: -0.04 | inactive: -0.003 | inactive: 0.025 | inactive: 0.029 | inactive: 0.011 | inactive: 0.011 | inactive: 0.002 | inactive: -0.016 | inactive: -0.002 | inactive: -0.029
PSMD9 (UniProt O00233) | inactive: 0.016 | inactive: 0.032 | inactive: -0.007 | inactive: -0.099 | inactive: 0.005 | inactive: 0.026 | inactive: -0.023 | inactive: 0.022 | inactive: -0.03 | inactive: 0.015
PSIP1 (UniProt O75475) | inactive: -0.014 | inactive: 0.019 | inactive: -0.023 | inactive: -0.007 | inactive: 0.003 | inactive: 0.004 | inactive: 0.002 | inactive: 0.017 | inactive: -0.011 | inactive: -0.006
PRXL2B isoform 3 (UniProt Q8TBF2) | inactive: 0.017 | inactive: -0.04 | inactive: -0.022 | inactive: -0.074 | inactive: 0.044 | inactive: -0.027 | inactive: -0.002 | inactive: 0.042 | inactive: -0.004 | inactive: 0.025
PSMD13 (UniProt Q9UNM6) | inactive: -0.025 | inactive: 0.001 | inactive: 0 | inactive: 0.008 | inactive: 0.006 | inactive: -0.086 | inactive: 0.006 | inactive: 0.024 | inactive: -0.022 | inactive: -0.002
PSMA4 (UniProt P25789) | inactive: -0.001 | inactive: 0.038 | inactive: 0.027 | inactive: 0.001 | inactive: 0.008 | inactive: 0.013 | inactive: -0.041 | inactive: -0.006 | inactive: 0.033 | inactive: 0

Pulled one by one from the list above (2):
Target | log2 fold change [1] | log2 fold change [2] | log2 fold change [3] | log2 fold change [4] | log2 fold change [5] | log2 fold change [6] | log2 fold change [7] | log2 fold change [8] | log2 fold change [9] | log2 fold change [10]
PSMA4 (UniProt P25789) | inactive: -0.001 | inactive: 0.038 | inactive: 0.027 | inactive: 0.001 | inactive: 0.008 | inactive: 0.013 | inactive: -0.041 | inactive: -0.006 | inactive: 0.033 | inactive: 0
PRPS2 isoform 2 (UniProt P11908) | inactive: -0.024 | inactive: -0.038 | inactive: 0.005 | inactive: 0.025 | inactive: 0.016 | inactive: -0.016 | inactive: 0.001 | inactive: 0.021 | inactive: 0.003 | inactive: -0.037
